According to PMC4468853:
These are yes or no findings as the source states them, for the method shown. In cells and extracts the contact can be indirect. These calls come from enrichment with a bait or labelling near it, and not all partners need be listed.

Sequences of proteins named here, by UniProt entry; tags and fusion partners are left off.
UniProt Q8WW35: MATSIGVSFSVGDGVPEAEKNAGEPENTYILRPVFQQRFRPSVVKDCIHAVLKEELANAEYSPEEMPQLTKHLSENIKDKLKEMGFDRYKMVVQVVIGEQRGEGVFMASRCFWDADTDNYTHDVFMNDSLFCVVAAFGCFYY
UniProt Q96EX3: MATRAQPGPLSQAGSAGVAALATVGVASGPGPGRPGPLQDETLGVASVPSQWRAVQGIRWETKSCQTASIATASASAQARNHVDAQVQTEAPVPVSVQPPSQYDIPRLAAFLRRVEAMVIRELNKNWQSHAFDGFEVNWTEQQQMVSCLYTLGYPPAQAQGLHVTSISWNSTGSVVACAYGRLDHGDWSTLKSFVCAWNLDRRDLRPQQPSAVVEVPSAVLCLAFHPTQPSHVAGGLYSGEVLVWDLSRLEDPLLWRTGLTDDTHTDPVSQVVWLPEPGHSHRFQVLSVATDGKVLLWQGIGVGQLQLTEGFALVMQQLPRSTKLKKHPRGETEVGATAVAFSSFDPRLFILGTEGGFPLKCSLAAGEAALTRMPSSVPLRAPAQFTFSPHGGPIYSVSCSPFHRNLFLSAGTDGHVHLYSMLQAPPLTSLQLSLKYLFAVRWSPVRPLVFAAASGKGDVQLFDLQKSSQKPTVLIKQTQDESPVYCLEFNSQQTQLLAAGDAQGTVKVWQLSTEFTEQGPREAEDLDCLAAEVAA
UniProt Q8WVS4: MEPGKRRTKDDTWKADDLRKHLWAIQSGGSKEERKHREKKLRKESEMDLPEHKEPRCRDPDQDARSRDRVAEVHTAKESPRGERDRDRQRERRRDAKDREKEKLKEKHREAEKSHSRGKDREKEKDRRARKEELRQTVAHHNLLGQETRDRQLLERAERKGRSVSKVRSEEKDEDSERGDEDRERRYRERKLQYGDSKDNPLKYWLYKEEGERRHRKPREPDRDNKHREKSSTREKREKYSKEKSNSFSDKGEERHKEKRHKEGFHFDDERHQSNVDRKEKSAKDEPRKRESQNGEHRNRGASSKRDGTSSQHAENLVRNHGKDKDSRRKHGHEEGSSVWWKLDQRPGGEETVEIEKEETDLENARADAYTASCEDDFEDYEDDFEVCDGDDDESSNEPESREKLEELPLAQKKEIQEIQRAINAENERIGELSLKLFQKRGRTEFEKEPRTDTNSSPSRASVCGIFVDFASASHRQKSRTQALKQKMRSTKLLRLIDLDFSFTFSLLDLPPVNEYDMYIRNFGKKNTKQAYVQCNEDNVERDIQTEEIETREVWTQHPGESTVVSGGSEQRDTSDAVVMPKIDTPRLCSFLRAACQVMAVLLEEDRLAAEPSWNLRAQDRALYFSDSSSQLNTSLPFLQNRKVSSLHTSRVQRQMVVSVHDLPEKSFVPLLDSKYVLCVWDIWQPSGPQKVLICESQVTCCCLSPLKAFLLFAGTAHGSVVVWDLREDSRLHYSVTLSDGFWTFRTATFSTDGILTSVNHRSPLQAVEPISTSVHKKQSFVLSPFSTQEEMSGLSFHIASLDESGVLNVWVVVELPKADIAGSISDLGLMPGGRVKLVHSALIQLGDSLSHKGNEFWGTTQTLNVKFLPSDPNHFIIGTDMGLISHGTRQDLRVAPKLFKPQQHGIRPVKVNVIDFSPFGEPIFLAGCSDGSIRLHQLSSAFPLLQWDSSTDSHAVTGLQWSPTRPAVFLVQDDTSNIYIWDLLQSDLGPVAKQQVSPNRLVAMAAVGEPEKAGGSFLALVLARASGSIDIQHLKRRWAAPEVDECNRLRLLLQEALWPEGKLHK
UniProt Q9NP97: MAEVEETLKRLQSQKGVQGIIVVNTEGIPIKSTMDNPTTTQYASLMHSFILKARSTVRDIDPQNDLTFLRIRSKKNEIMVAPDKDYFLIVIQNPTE
UniProt P51808: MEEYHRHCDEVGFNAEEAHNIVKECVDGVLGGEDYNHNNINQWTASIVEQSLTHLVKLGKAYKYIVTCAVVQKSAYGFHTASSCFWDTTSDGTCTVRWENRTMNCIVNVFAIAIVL

Molecular target: SF-TAP (Streptavidin/FLAG Tandem Affinity Purification)-tagged TCTEX1D2 (human) (UniProt Q8WW35)
Experiment: affinity purification with mass spectrometry; SF-TAP-tagged TCTEX1D2 expressed in HEK293T cells; cells expressing SF-TAP-RAF1 as control

binding | Substance
binds | WDR34 (from UniProt Q96EX3 1-536)
binds | WDR60 (from UniProt Q8WVS4 1-1066)
binds | DYNLRB1 (from UniProt Q9NP97 1-96)
binds | DYNLT3 (from UniProt P51808 1-116)
